One molecule from paper PMC4474874, “Effect of JAK Inhibitors on Release of CXCL9, CXCL10 and CXCL11 from Human Airway Epithelial Cells” (PLoS ONE, 2015) can be followed below.

The assay concerns human primary airway epithelial cells. The assay can be described thus: IL-6 release from IFNγ + TNFα-stimulated human primary airway epithelial cells. In kind it is cell-based. How it is done:
In order to determine whether any of the inhibitory effects of the JAK inhibitors could be attributed to cell death, MTT assays were performed at the end of every experiment. […] In order to address this issue, the levels of IL-6 released from cells stimulated with IFNγ + TNFα were measured.

`C[C@@H]1CCN(C(=O)N2CCCC2)C[C@@H]1N(C)c1ncnc2[nH]ccc12` [PF956980]: the “IC50 for IL-6 release, fold greater than for inhibition of CXCR3 chemokine release” value is on record as ~ 5 fold.
